This passage reports binding results from patent publication US20070190528A1.

Chains of the proteins cited; added tags and fusions are not shown.
UniProt P09382: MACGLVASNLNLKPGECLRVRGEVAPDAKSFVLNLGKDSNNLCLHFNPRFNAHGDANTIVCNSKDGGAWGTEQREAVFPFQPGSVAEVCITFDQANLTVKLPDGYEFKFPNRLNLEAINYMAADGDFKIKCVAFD

Changes are numbered by the printed parent chain. No constants are given. Whether binding was seen depends on the method and setting. For some of these results: In cells and extracts the contact can be indirect. Some results given as binding are weak or reduced against the parent protein; the word gives no strength. For some of these results: Sequences can lack the tags named with a protein.

For assay [1], the target named is T1, Recombinant LTA (pET29 system, E. coli) (UniProt P01374).
T1 sequence (looked up): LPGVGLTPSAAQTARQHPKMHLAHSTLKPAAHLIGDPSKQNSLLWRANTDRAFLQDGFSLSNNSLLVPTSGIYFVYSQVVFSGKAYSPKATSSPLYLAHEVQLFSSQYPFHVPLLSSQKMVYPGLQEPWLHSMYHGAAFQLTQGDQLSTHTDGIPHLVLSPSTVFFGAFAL
Nature of the assay: pull-down of purified proteins with anti-LTA antibody sepharose, Western blot with anti-T7. (Immunoblotting shows a protein as a band on a membrane.)

Assay [2] has as its target T1, Recombinant LTA (pET29 system, E. coli). Nature of the assay: summary of the immunoprecipitation experiments.
For assay [3], the target named is T2, LTA (lymphotoxin-alpha) as used for E. coli two-hybrid screening (UniProt P01374).
T2 sequence (looked up): T1 sequence (looked up)
Nature of the assay: E. coli two-hybrid screening.

Assay [4] addresses T1, Recombinant LTA (pET29 system, E. coli). Nature of the assay: pull-down of purified proteins with anti-LTA antibody sepharose, Western blot with anti-T7 tag.
In assay [5] the target is T3, FLAG-tagged LTA Asn26 (pFLAG-CMV-5a vector, expressed in COS7 cells) (UniProt P01374).
T3 sequence (looked up): T1 sequence (looked up) with T26N
Nature of the assay: coimmunoprecipitation from COS7 lysate with anti-LTA antibody.

Assay [6] addresses T3, FLAG-tagged LTA Asn26 (pFLAG-CMV-5a vector, expressed in COS7 cells). Nature of the assay: coimmunoprecipitation from COS7 lysate with anti-LTA antibody and protein A sepharose, Western blot with anti-Myc (lane 5).

As to “Recombinant galectin-1 (T7-tagged at the N-terminus) (from UniProt P09382 1-135)”, the binding result in assay [1] and in assay [2] was “binds” throughout.
Regarding “galectin-1 (clone from the two-hybrid library derived from blood vessel smooth muscle cells) (from UniProt P09382 1-135)”, the binding entry in assay [3] is “binds”.

B1: Recombinant galectin-2 (full-length, pET 28, E. coli; detected by anti-T7 tag antibody) (protein, UniProt P05162 1-132, looked up, not shown: small tags and cut ends)
chain: MTGELEVKNMDMKPGSTLKITGSIADGTDGFVINLGQGTDKLNLHFNPRFSESTIVCNSLDGSNWGQEQREDHLCFSPGSEVKFTVTFESDKFKVKLPDGHELTFPNRLGHSHLSYLSVRGGFNMSSFKLKE
Consider B1, for which the binding entry in assay [2] and in assay [4] was “binds” throughout.

B2: Myc-tagged galectin-2 (pCMV-Myc vector, expressed in COS7 cells) (protein, UniProt P05162 1-132, looked up, not shown: small tags and cut ends)
chain: B1 chain
For B2, the binding result in assay [5] and in assay [6] was “binds” throughout.
